{"source": "patent US5696153A", "about": "“Therapeutic regimen for treating patients” (priority 1996, dated 1997)", "origin": "cited, not measured here", "conditions": "same dose, twenty-one day schedule; cited from earlier work", "data": [{"molecule": "CC(=O)O[C@H]1C(=O)[C@@]2(C)[C@H]([C@H](OC(=O)c3ccccc3)[C@]3(O)C[C@H](OC(=O)[C@H](O)[C@@H](NC(=O)c4ccccc4)c4ccccc4)C(C)=C1C3(C)C)[C@]1(OC(C)=O)CO[C@@H]1C[C@@H]2O", "note": "[taxol]", "values": [{"measurement": "effectiveness and toxicity, three hour vs twenty-four hour infusion", "result": "equal effectiveness and less drug toxicity"}]}]}
